PMC5996148
Several values for one entry are separate records, joined by “and”; a condition that tells them apart may be missing. Equal entries are not always repeated. The list shows a part of the results. For some of these results: Construct or isoform of the protein are uncertain.

Tests used:
Assay in all cases: protein microarray (ProtoArray v5.0), streptavidin-Alexa Fluor 647
Details in all cases: 3'-biotin; 20 mM Tris (pH 7.5), 5 mM MgCl2, 100 mM KCl, 0.1% Tween-20, A/T-rich and random oligonucleotide blockers; temperature not stated; high values mean tight binding
SLC25A46 (human) = tested on: SLC25A46 (human)
SLC26A2 (human) = tested on: SLC26A2 (human)
SLC2A5 (human) = tested on: SLC2A5 (human)
SLC30A5 (human) = tested on: SLC30A5 (human)
SLC31A2 = biological target: T1, SLC31A2 (UniProt O15432)
T1 sequence: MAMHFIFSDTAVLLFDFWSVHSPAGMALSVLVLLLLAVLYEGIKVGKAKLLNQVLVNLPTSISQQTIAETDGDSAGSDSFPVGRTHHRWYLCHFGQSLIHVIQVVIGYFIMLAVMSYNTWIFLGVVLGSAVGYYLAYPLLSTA

SLC35B3 (human) = tested on: SLC35B3 (human)
SLC38A3 (human) = tested on: SLC38A3 (human)
SLC39A1 (human) = tested on: SLC39A1 (human)
SLC40A1 (human) = tested on: SLC40A1 (human)
SLC6A6 (human) = tested on: SLC6A6 (human)

## GGGAGGCTGAGGCAGG [G4-1 biotinylated (PQS2)]
SLC25A46 (human)
  binding signal: -0.326 z-score
SLC26A2 (human)
  binding signal: -0.348 z-score
SLC2A5 (human)
  binding signal: -0.325 z-score and -0.349 z-score
SLC30A5 (human)
  binding signal: -0.288 z-score
SLC31A2
  binding signal: -0.313 z-score
SLC35B3 (human)
  binding signal: -0.276 z-score
SLC38A3 (human)
  binding signal: -0.312 z-score
SLC39A1 (human)
  binding signal: -0.326 z-score
SLC40A1 (human)
  binding signal: -0.314 z-score
SLC6A6 (human)
  binding signal: -0.251 z-score
